Assay results published in article doi:10.1101/2022.09.16.508286.
No constants are given. Whether binding was seen depends on the method and setting. For part of these data: In cells and extracts the contact can be indirect. Some entries that bind do so weakly or less than the wild type.

Tests used:
Settings in all cases: remark: other sources report otherwise
[1] = biological target: T1, SLC25A46 (human (endogenous in fibroblasts)), Q96AG3; assay: co-IP
T1 chain: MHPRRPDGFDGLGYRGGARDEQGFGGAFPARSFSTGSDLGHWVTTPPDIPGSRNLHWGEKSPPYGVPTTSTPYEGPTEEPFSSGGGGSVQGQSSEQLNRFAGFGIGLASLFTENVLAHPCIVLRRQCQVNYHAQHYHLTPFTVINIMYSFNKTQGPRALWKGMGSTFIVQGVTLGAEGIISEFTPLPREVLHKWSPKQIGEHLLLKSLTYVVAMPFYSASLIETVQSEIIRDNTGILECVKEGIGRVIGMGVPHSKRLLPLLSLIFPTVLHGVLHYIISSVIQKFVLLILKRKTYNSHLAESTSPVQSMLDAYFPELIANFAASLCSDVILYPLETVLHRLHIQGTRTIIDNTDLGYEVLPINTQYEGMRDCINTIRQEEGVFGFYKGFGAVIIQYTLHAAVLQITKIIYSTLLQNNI

[2] = biological target: T2, MFN2 (human (endogenous in fibroblasts)), O95140; assay: native gel or EMSA
T2 chain: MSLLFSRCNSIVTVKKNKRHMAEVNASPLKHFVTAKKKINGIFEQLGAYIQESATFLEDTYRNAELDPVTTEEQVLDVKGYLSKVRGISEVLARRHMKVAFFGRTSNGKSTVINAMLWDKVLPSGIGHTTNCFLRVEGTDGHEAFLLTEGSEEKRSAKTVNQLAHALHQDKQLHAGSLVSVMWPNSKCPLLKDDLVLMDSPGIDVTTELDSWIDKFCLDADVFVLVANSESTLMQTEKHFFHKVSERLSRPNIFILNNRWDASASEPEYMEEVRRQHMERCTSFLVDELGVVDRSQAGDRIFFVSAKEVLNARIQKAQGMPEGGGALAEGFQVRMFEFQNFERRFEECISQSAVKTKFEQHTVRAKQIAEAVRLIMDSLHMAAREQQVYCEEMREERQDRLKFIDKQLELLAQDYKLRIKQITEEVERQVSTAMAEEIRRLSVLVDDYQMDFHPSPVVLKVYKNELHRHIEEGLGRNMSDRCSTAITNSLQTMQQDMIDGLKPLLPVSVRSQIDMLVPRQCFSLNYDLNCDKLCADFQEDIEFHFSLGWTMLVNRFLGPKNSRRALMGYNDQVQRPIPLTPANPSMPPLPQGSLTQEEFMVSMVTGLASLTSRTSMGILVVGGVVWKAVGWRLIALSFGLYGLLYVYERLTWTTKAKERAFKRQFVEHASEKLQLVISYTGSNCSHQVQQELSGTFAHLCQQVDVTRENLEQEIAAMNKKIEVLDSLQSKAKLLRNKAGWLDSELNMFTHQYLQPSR

[3] = biological target: T2, MFN2 (human (endogenous in …)); assay: native gel or EMSA

binding [1]: binds
binding [2]: binds
binding [3]: binds
B1: MFN2, O95140 1-757 (protein)
chain: MSLLFSRCNSIVTVKKNKRHMAEVNASPLKHFVTAKKKINGIFEQLGAYIQESATFLEDTYRNAELDPVTTEEQVLDVKGYLSKVRGISEVLARRHMKVAFFGRTSNGKSTVINAMLWDKVLPSGIGHTTNCFLRVEGTDGHEAFLLTEGSEEKRSAKTVNQLAHALHQDKQLHAGSLVSVMWPNSKCPLLKDDLVLMDSPGIDVTTELDSWIDKFCLDADVFVLVANSESTLMQTEKHFFHKVSERLSRPNIFILNNRWDASASEPEYMEEVRRQHMERCTSFLVDELGVVDRSQAGDRIFFVSAKEVLNARIQKAQGMPEGGGALAEGFQVRMFEFQNFERRFEECISQSAVKTKFEQHTVRAKQIAEAVRLIMDSLHMAAREQQVYCEEMREERQDRLKFIDKQLELLAQDYKLRIKQITEEVERQVSTAMAEEIRRLSVLVDDYQMDFHPSPVVLKVYKNELHRHIEEGLGRNMSDRCSTAITNSLQTMQQDMIDGLKPLLPVSVRSQIDMLVPRQCFSLNYDLNCDKLCADFQEDIEFHFSLGWTMLVNRFLGPKNSRRALMGYNDQVQRPIPLTPANPSMPPLPQGSLTQEEFMVSMVTGLASLTSRTSMGILVVGGVVWKAVGWRLIALSFGLYGLLYVYERLTWTTKAKERAFKRQFVEHASEKLQLVISYTGSNCSHQVQQELSGTFAHLCQQVDVTRENLEQEIAAMNKKIEVLDSLQSKAKLLRNKAGWLDSELNMFTHQYLQPSR
